## Assay results

The results are deposited in PubChem (AID504749; NCATS, 2011).

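A panel of P. falciparum strains inside erythrocytes is exposed to compounds for three days, then a DNA-binding dye reports the amount of parasite DNA. Each compound was titrated across a series from about 0.000037 to 29 µM. The number is the fitted AC50, the concentration giving a half-maximal change in signal; a lower value means higher potency, whether the curve shows a decrease or an increase. Calls follow the curve class and fit quality: every row here is inconclusive, covering signal-raising curves and weak, poorly fitted, partial or highest-dose-only inhibition curves.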

Values are in µM. All entries here are filed as inconclusive. These entries are mostly ones the record files as inconclusive; other results of the assay are not listed here. Potencies fitted to partial, single-point or poorly fitting curves are rough.

SMILES	setting	fitted potency (µM)	curve
CN1CCc2c(c3ccccc3n2Cc2ccccc2)C1	DIV14	5.726	inhibitor, partial curve
CN1CCc2c(c3ccccc3n2Cc2ccccc2)C1	CP269	4.548	inhibitor, partial curve, poor fit
CN1CCc2c(c3ccccc3n2Cc2ccccc2)C1	TAB165	3.981	inhibitor, single point
CN1CCc2c(c3ccccc3n2Cc2ccccc2)C1	CP335	9.074	inhibitor, partial curve, poor fit
CN1CCc2c(c3ccccc3n2Cc2ccccc2)C1	P94_40	7.08	inhibitor, single point
CN1CCc2c(c3ccccc3n2Cc2ccccc2)C1	DIV17	6.424	inhibitor, partial curve, poor fit
CN1CCc2c(c3ccccc3n2Cc2ccccc2)C1	ATS95	3.981	inhibitor, single point
CN1CCc2c(c3ccccc3n2Cc2ccccc2)C1	AA1029	10	inhibitor, single point
CN1CCc2c(c3ccccc3n2Cc2ccccc2)C1	CP325	8.087	inhibitor, partial curve, poor fit
CN1CCc2c(c3ccccc3n2Cc2ccccc2)C1	7G8	3.981	inhibitor, single point
CN1CCc2c(c3ccccc3n2Cc2ccccc2)C1	CP211	9.074	inhibitor, partial curve, poor fit
CN1CCc2c(c3ccccc3n2Cc2ccccc2)C1	CP268	6.424	inhibitor, single point
CN1CCc2c(c3ccccc3n2Cc2ccccc2)C1	GB4	3.22	inhibitor, partial curve
OCCCNc1ccccc1	CP266	16.94	inhibitor, partial curve, poor fit
OCCCNc1ccccc1	CP247	12.59	inhibitor, partial curve, poor fit
COc1cc(-c2ccc(-[n+]3nc(-c4ccccc4)nn3-c3ccc([N+](=O)[O-])cc3)c(OC)c2)ccc1-[n+]1nc(-c2ccccc2)nn1-c1ccc([N+](=O)[O-])cc1	CP269	15.1	inhibitor, single point
COc1cc(-c2ccc(-[n+]3nc(-c4ccccc4)nn3-c3ccc([N+](=O)[O-])cc3)c(OC)c2)ccc1-[n+]1nc(-c2ccccc2)nn1-c1ccc([N+](=O)[O-])cc1	CP194	19.01	inhibitor, single point
COc1cc(-c2ccc(-[n+]3nc(-c4ccccc4)nn3-c3ccc([N+](=O)[O-])cc3)c(OC)c2)ccc1-[n+]1nc(-c2ccccc2)nn1-c1ccc([N+](=O)[O-])cc1	P93_24	17.78	inhibitor, single point
COc1cc(-c2ccc(-[n+]3nc(-c4ccccc4)nn3-c3ccc([N+](=O)[O-])cc3)c(OC)c2)ccc1-[n+]1nc(-c2ccccc2)nn1-c1ccc([N+](=O)[O-])cc1	N140	12.59	inhibitor, single point
COc1cc(-c2ccc(-[n+]3nc(-c4ccccc4)nn3-c3ccc([N+](=O)[O-])cc3)c(OC)c2)ccc1-[n+]1nc(-c2ccccc2)nn1-c1ccc([N+](=O)[O-])cc1	TAB165	10	inhibitor, single point
COc1cc(-c2ccc(-[n+]3nc(-c4ccccc4)nn3-c3ccc([N+](=O)[O-])cc3)c(OC)c2)ccc1-[n+]1nc(-c2ccccc2)nn1-c1ccc([N+](=O)[O-])cc1	CP305	13.46	inhibitor, single point
COc1cc(-c2ccc(-[n+]3nc(-c4ccccc4)nn3-c3ccc([N+](=O)[O-])cc3)c(OC)c2)ccc1-[n+]1nc(-c2ccccc2)nn1-c1ccc([N+](=O)[O-])cc1	CP315	19.01	inhibitor, single point
COc1cc(-c2ccc(-[n+]3nc(-c4ccccc4)nn3-c3ccc([N+](=O)[O-])cc3)c(OC)c2)ccc1-[n+]1nc(-c2ccccc2)nn1-c1ccc([N+](=O)[O-])cc1	CP250	17.78	inhibitor, single point
COc1cc(-c2ccc(-[n+]3nc(-c4ccccc4)nn3-c3ccc([N+](=O)[O-])cc3)c(OC)c2)ccc1-[n+]1nc(-c2ccccc2)nn1-c1ccc([N+](=O)[O-])cc1	CP256	7.08	inhibitor, partial curve
COc1cc(-c2ccc(-[n+]3nc(-c4ccccc4)nn3-c3ccc([N+](=O)[O-])cc3)c(OC)c2)ccc1-[n+]1nc(-c2ccccc2)nn1-c1ccc([N+](=O)[O-])cc1	CP265	17.78	inhibitor, single point
COc1cc(-c2ccc(-[n+]3nc(-c4ccccc4)nn3-c3ccc([N+](=O)[O-])cc3)c(OC)c2)ccc1-[n+]1nc(-c2ccccc2)nn1-c1ccc([N+](=O)[O-])cc1	PAD	12.59	inhibitor, single point
COc1cc(-c2ccc(-[n+]3nc(-c4ccccc4)nn3-c3ccc([N+](=O)[O-])cc3)c(OC)c2)ccc1-[n+]1nc(-c2ccccc2)nn1-c1ccc([N+](=O)[O-])cc1	CP238	10	inhibitor, single point
COc1cc(-c2ccc(-[n+]3nc(-c4ccccc4)nn3-c3ccc([N+](=O)[O-])cc3)c(OC)c2)ccc1-[n+]1nc(-c2ccccc2)nn1-c1ccc([N+](=O)[O-])cc1	JCK	10	inhibitor, single point
COc1cc(-c2ccc(-[n+]3nc(-c4ccccc4)nn3-c3ccc([N+](=O)[O-])cc3)c(OC)c2)ccc1-[n+]1nc(-c2ccccc2)nn1-c1ccc([N+](=O)[O-])cc1	CP237	10	inhibitor, single point
COc1cc(-c2ccc(-[n+]3nc(-c4ccccc4)nn3-c3ccc([N+](=O)[O-])cc3)c(OC)c2)ccc1-[n+]1nc(-c2ccccc2)nn1-c1ccc([N+](=O)[O-])cc1	CP215	9.528	inhibitor, single point

The last 3 entries again:

{"smiles": "COc1cc(-c2ccc(-[n+]3nc(-c4ccccc4)nn3-c3ccc([N+](=O)[O-])cc3)c(OC)c2)ccc1-[n+]1nc(-c2ccccc2)nn1-c1ccc([N+](=O)[O-])cc1", "setting": "JCK", "fitted potency (µM)": "10", "curve": "inhibitor, single point"}
{"smiles": "COc1cc(-c2ccc(-[n+]3nc(-c4ccccc4)nn3-c3ccc([N+](=O)[O-])cc3)c(OC)c2)ccc1-[n+]1nc(-c2ccccc2)nn1-c1ccc([N+](=O)[O-])cc1", "setting": "CP237", "fitted potency (µM)": "10", "curve": "inhibitor, single point"}
{"smiles": "COc1cc(-c2ccc(-[n+]3nc(-c4ccccc4)nn3-c3ccc([N+](=O)[O-])cc3)c(OC)c2)ccc1-[n+]1nc(-c2ccccc2)nn1-c1ccc([N+](=O)[O-])cc1", "setting": "CP215", "fitted potency (µM)": "9.528", "curve": "inhibitor, single point"}